Out of some 140,000 compounds screened, about 4,300 (3.1%) were called active. The inconclusive results got no clear call from the source; some entries with a clear call stand among them for comparison.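 How the source made its calls: active means readout at or below -70, meaning at least 70% loss of cells showing the perinucleolar compartment, a nuclear body marking cancer cells; inconclusive means readout between -30 and a set limit; inactive means the rest.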
Assay: High Content Assay for Compounds that inhibit the Assembly of the Perinucleolar Compartment;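 further: plate controls were DMSO wells for no effect and camptothecin positive control wells for full effect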
Settings: PC3M PTB-GFP, PNC prevalence imaging, 16 h; at 10 µM; stronger effect = lower value
Method in brief: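 Compounds are pinned in duplicate onto adhered PC3M cells stably expressing GFP-tagged PTB and incubated 16 h at 37 C. Cells are then fixed, nuclei stained with Hoechst, and PNC-positive cells counted.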

Compound | activity change (PNC), negative = inhibition
COc1ccc2nc(SCC(=O)Nc3ccc4c(c3)CCC4)[nH]c2c1 | inactive: 8.43%
Cc1cccc2nc(-c3ccccc3)nc(N3CCC(O)(c4ccc(Cl)cc4)CC3)c12 | inconclusive: -51.4%
CCCCN1C(=O)Cc2c1nc(N)c1c(N)nc(N(CCC)CCC)c(C#N)c21 | inconclusive: -37.4%
CCOc1ccccc1NC(=O)COn1nnc2ccc(Cl)cc21 | inconclusive: -31.3%
CN(C)S(=O)(=O)c1cccc(NC(=S)NC(=O)C2CCCCC2)c1 | inconclusive: -50.7%
COC(=O)C1=C(C)N(C(C)C)C(=O)C1(NC(C)=O)C(F)(F)F (centres undefined) | inconclusive: -30.6%
O=c1c(C=Nc2ccc(Oc3ccccc3)cc2)c[nH]n1-c1cccc(Cl)n1 | inconclusive: -33.8%
COc1cc(N=C2C(=O)N3CCCc4cccc2c43)cc(OC)c1 | active: -104%
O=C(CSc1nc(CCC2CCCC2)nc2ccccc12)NCc1ccc2c(c1)OCO2 | inactive: -0.56%
CCCNC(=O)c1ccc2c(c1)C1C3CCC(C3)C1C(c1ccccc1)N2 (centres undefined) | inactive: -7.62%
Clc1ccc2oc(-c3ccccn3)nc2c1 | inconclusive: -50.4%
COc1cccc(CC(NC(C)=O)C(=O)NC2CCN(c3c(Cc4ccccc4)c(C)nc4ncnn34)CC2)c1 (centres undefined) | inconclusive: -68.1%
CCC1CCCCN1C(=S)NC(=O)c1ccc([N+](=O)[O-])cc1 (centres undefined) | inactive: 11.3%
COc1cc2c(cc1NC(=O)Cc1ccc(C)cc1)oc1ccccc12 | inconclusive: -56.4%
CC1CCCN(S(=O)(=O)c2ccccc2[N+](=O)[O-])C1 (centres undefined) | inconclusive: -78.3%
O=C(C1=NN[C@@H]2C(=O)N(c3cccc(F)c3)C(=O)[C@H]12)C(c1ccccc1)c1ccccc1 | inconclusive: -35.3%
S=C(NCCc1ccccc1)Nc1ccc(Br)cc1 | inconclusive: -31.6%
c1ccc(SCCOCCN2CCc3ccccc3C2)cc1 | inconclusive: -55%
CCSc1ncnc2c1sc1nc3c(cc12)COC(C)(C)C3 | inactive: -28.7%
Cc1c(NCc2cc(Cl)cc(Cl)c2O)c(=O)n(-c2ccccc2)n1C | inactive: 13.5%
Cc1cc(C)n2c(SCC#N)nnc2n1 | inconclusive: -55%
Cc1ccc(S(=O)(=O)NCCC(c2ccc(F)cc2)c2ccco2)cc1 (centres undefined) | inconclusive: -43.1%
Cc1ccc(S(=O)(=O)NC(C(=O)Oc2ccc3c(C)c(Cl)c(=O)oc3c2)c2ccccc2)cc1 (centres undefined) | active: -111%
O=C(NC(=S)NNS(=O)(=O)c1ccccc1)c1ccc([N+](=O)[O-])cc1 | inconclusive: -30.9%

Some of the entries so far, with each value named:
COC(=O)C1=C(C)N(C(C)C)C(=O)C1(NC(C)=O)C(F)(F)F (centres undefined)
  activity change (PNC), negative = inhibition: inconclusive: -30.6%
CCSc1ncnc2c1sc1nc3c(cc12)COC(C)(C)C3
  activity change (PNC), negative = inhibition: inactive: -28.7%
